{"source": "PubChem BioAssay AID1159584 (Peter MacCallum Cancer Centre, 2016)", "assay": "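Genes that CDH1-null MCF10A cells selectively depend on to survive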 (primary screen)", "cell system": "human MCF10A breast epithelial cells, parental and CDH1-null", "knock-down reagent": "siRNA against human genes", "measurement": "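ATP luminescence (CellTiter-Glo) viability per line relative to mean mock wells over all plates, and the ratio of CDH1-null to parental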", "direction": "CDH1-null / parental viability ratio: higher = CDH1-null cells survive relatively better than parental; CDH1-null viability vs mock: higher = more viable CDH1-null cells", "units": "CDH1-null viability vs mock in fraction of mock", "note": "Shown is one part, drawn at random, of about 18,000 reagents. The numbers tell different reagents against one gene apart. Further read-outs or replicates are left out here. Not stated in the record: the amount of reagent, the time to read-out."}
{"Target gene": "SLC25A1", "reagent": 1, "CDH1-null / parental viability ratio": 0.99, "CDH1-null viability vs mock": 1.11}
{"Target gene": "TMEM70", "reagent": 1, "CDH1-null / parental viability ratio": 1.01, "CDH1-null viability vs mock": 0.99}
{"Target gene": "LPAR4", "reagent": 1, "CDH1-null / parental viability ratio": 0.46, "CDH1-null viability vs mock": 0.38}
{"Target gene": "MAGEH1", "reagent": 1, "CDH1-null / parental viability ratio": 1.16, "CDH1-null viability vs mock": 0.87}
{"Target gene": "TIGD3", "reagent": 1, "CDH1-null / parental viability ratio": 0.96, "CDH1-null viability vs mock": 0.44}
{"Target gene": "AMIGO3", "reagent": 1, "CDH1-null / parental viability ratio": 0.82, "CDH1-null viability vs mock": 0.54}
{"Target gene": "NDUFA13", "reagent": 1, "CDH1-null / parental viability ratio": 0.87, "CDH1-null viability vs mock": 0.84}
{"Target gene": "TEKTL1", "reagent": 1, "CDH1-null / parental viability ratio": 0.99, "CDH1-null viability vs mock": 0.68}
{"Target gene": "PDCD2L", "reagent": 1, "CDH1-null / parental viability ratio": 0.88, "CDH1-null viability vs mock": 0.76}
{"Target gene": "NTAN1", "reagent": 1, "CDH1-null / parental viability ratio": 1.12, "CDH1-null viability vs mock": 1.04}
{"Target gene": "KIF26B", "reagent": 1, "CDH1-null / parental viability ratio": 0.85, "CDH1-null viability vs mock": 0.67}

Next part (3 carried over from the part before).
{"Target gene": "PDCD2L", "reagent": 1, "CDH1-null / parental viability ratio": 0.88, "CDH1-null viability vs mock": 0.76}
{"Target gene": "NTAN1", "reagent": 1, "CDH1-null / parental viability ratio": 1.12, "CDH1-null viability vs mock": 1.04}
{"Target gene": "KIF26B", "reagent": 1, "CDH1-null / parental viability ratio": 0.85, "CDH1-null viability vs mock": 0.67}
{"Target gene": "TGM2", "reagent": 1, "CDH1-null / parental viability ratio": 0.98, "CDH1-null viability vs mock": 1.06}
{"Target gene": "NAPG", "reagent": 1, "CDH1-null / parental viability ratio": 0.96, "CDH1-null viability vs mock": 1.07}
{"Target gene": "GPBAR1", "reagent": 1, "CDH1-null / parental viability ratio": 1.19, "CDH1-null viability vs mock": 0.96}
{"Target gene": "SPINDOC", "reagent": 1, "CDH1-null / parental viability ratio": 0.93, "CDH1-null viability vs mock": 0.76}
{"Target gene": "IL11", "reagent": 1, "CDH1-null / parental viability ratio": 1.18, "CDH1-null viability vs mock": 0.45}
{"Target gene": "CYP1A1", "reagent": 1, "CDH1-null / parental viability ratio": 0.88, "CDH1-null viability vs mock": 0.56}
{"Target gene": "DVL2", "reagent": 1, "CDH1-null / parental viability ratio": 1.11, "CDH1-null viability vs mock": 0.7}
{"Target gene": "ANKRD23", "reagent": 1, "CDH1-null / parental viability ratio": 0.94, "CDH1-null viability vs mock": 0.66}
{"Target gene": "USF2", "reagent": 1, "CDH1-null / parental viability ratio": 1.06, "CDH1-null viability vs mock": 0.99}
{"Target gene": "MAST1", "reagent": 1, "CDH1-null / parental viability ratio": 0.82, "CDH1-null viability vs mock": 0.7}
{"Target gene": "GLRX", "reagent": 1, "CDH1-null / parental viability ratio": 1.19, "CDH1-null viability vs mock": 0.87}
{"Target gene": "REPS1", "reagent": 1, "CDH1-null / parental viability ratio": 0.9, "CDH1-null viability vs mock": 0.7}
{"Target gene": "NUDT4", "reagent": 1, "CDH1-null / parental viability ratio": 1.29, "CDH1-null viability vs mock": 0.8}
{"Target gene": "ACYP2", "reagent": 1, "CDH1-null / parental viability ratio": 1.15, "CDH1-null viability vs mock": 1.08}
{"Target gene": "AKT3", "reagent": 1, "CDH1-null / parental viability ratio": 1.06, "CDH1-null viability vs mock": 0.76}
{"Target gene": "CSH2", "reagent": 1, "CDH1-null / parental viability ratio": 1.17, "CDH1-null viability vs mock": 0.84}
{"Target gene": "BDH2", "reagent": 1, "CDH1-null / parental viability ratio": 0.98, "CDH1-null viability vs mock": 1}
{"Target gene": "STYX", "reagent": 1, "CDH1-null / parental viability ratio": 1.7, "CDH1-null viability vs mock": 0.78}
{"Target gene": "ALG13", "reagent": 1, "CDH1-null / parental viability ratio": 0.86, "CDH1-null viability vs mock": 0.84}
{"Target gene": "ALG13", "reagent": 2, "CDH1-null / parental viability ratio": 1.09, "CDH1-null viability vs mock": 1.04}
{"Target gene": "C1orf226", "reagent": 1, "CDH1-null / parental viability ratio": 0.88, "CDH1-null viability vs mock": 0.58}
{"Target gene": "RASGRF1", "reagent": 1, "CDH1-null / parental viability ratio": 1.12, "CDH1-null viability vs mock": 0.74}
{"Target gene": "SLC25A41", "reagent": 1, "CDH1-null / parental viability ratio": 0.94, "CDH1-null viability vs mock": 0.66}
{"Target gene": "ACSM6", "reagent": 1, "CDH1-null / parental viability ratio": 1.09, "CDH1-null viability vs mock": 0.93}
